From publication PMC1906734
Residue numbers refer to the chain shown, from its start. Results are given in words; binding and its absence hold for the method and conditions named. Some binding calls cover weakened binding; strength is not graded here. Sequences can lack the tags named with a protein.

Sequences of proteins named here, by UniProt entry; tags and fusion partners are left off. Residues count along the entry.
UniProt G3I8R9, residues 19-654: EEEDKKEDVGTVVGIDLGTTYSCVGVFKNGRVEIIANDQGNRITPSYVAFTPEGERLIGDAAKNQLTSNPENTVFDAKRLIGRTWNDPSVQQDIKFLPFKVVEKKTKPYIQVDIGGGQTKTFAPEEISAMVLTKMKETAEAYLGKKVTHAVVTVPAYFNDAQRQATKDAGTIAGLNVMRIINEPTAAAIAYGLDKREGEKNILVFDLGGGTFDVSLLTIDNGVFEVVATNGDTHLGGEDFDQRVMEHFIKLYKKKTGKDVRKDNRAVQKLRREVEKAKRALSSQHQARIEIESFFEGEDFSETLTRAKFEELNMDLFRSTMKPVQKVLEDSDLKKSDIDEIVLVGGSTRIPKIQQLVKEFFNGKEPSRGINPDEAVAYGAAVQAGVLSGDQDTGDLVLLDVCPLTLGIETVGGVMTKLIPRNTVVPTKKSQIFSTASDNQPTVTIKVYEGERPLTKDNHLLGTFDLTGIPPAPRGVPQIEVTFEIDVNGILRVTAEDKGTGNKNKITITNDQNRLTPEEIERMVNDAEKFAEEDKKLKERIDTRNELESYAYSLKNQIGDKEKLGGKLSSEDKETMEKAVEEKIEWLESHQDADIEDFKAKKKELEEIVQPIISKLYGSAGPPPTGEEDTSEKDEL

Experiments:
[1] = target: T1, GST-ERj1-J fusion protein (J-domain of murine ERj1 fused to glutathione S-transferase) (mouse) (UniProt Q61712); assay: SPR; GST fusion proteins (400 response units) captured by anti-GST antibodies on a CM5 chip, GST in the reference cell; BiP 0.25-2 μM passed over at 20 μl/min; PBS with 3 mM KCl, 1 mM MgCl2, 0.1% Tween 20 and 2 mM ATP; maximum response against concentration, one-site fit; apparent affinity; both …
T1 sequence: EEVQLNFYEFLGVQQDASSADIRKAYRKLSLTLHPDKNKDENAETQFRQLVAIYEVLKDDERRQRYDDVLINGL

[2] = target: T2, GST-ERj1-J-H33Q (mouse) (UniProt Q61712); assay: pull-down; GST-ERj1-J or its mutant derivative (0.5 μM) bound to GSH-Sepharose beads; BiP 0.5 μM in PBS, with and without ATP (2 mM), 1 h at 4 °C; eluate analysed by SDS-PAGE; both purified
T2 sequence: T1 sequence with H34Q

[3] = target: T1, GST-ERj1-J fusion protein (J-domain of murine ERj1 fused to glutathione S-transferase) (mouse); assay: as above
[4] = target: T3, GST-ERj1-J-R26A (mouse) (UniProt Q61712); assay: as above
T3 sequence: T1 sequence with R27A

binding [1]: binds | binding [2]: no binding (tested: 0.5 μM BiP) | binding [3]: binds | binding [4]: binds
Substance: Hamster BiP (from UniProt G3I8R9 19-654)
